From patent US20200329707A1, “PYRAZOLAMIDE COMPOUND HAVING INSECTICIDAL ACTIVITY AND USE THEREOF” (JIANGSU FLAG CHEMICAL INDUSTRY CO., LTD., priority 2017, published 2020)
Some entries share one result that the patent states for a list of compounds.

Experiments:
Jacobiasca formosana = assay: Insecticidal effect on Jacobiasca formosana, peach leaves with nymphs immersed in test solution; format: in vivo; conditions: 40 ppm reagent solution; 2nd-to-4th-instar nymphs; 72 hrs
Nilaparvata lugens = assay: Insecticidal effect on Nilaparvata lugens, immersed rice seedlings; format: in vivo; conditions: 40 ppm reagent solution; 3rd to 4th instar nymphs; 120 hrs

SMILES | control effect on Jacobiasca formosana (Jacobiasca formosana) | control effect on Nilaparvata lugens (Nilaparvata lugens)
Cc1cc(Cl)cc(C(=O)NC(C)(C)C(N)=O)c1NC(=O)c1cc(Br)nn1-c1ncccc1Cl [Compound 1.1, N-(2-N-((1-amino-2-methyl-1-acylpropan-2-yl)-formyl)-4-chloro-6-methylphenyl)-1-(3-chloropyridin-2-yl)-3-bromo-1H-pyrazol-5-carboxamide] | more than 80% | more than 80%
Cc1cc(Cl)cc(C(=O)N(C)C(C)(C)C(N)=O)c1NC(=O)c1cc(Br)nn1-c1ncccc1Cl [Compound 1.3, N-methyl-N-(2-N-((1-amino-2-methyl-1-acylpropan-2-yl)-formyl)-4-chloro-6-methylphenyl)-1-(3-chloropyridin-2-yl)-3-bromo-1H-pyrazol-5-carboxamide] | more than 80% | 
